These are yes or no findings as the source states them, for the method shown. Binding seen in cells or lysates may run through a third protein. Some binding calls cover weakened binding; strength is not graded here. For part of these data: Tags and fused reporters may be left off the sequences shown.

Chains of the proteins cited; added tags and fusions are not shown.
UniProt Q80XI6: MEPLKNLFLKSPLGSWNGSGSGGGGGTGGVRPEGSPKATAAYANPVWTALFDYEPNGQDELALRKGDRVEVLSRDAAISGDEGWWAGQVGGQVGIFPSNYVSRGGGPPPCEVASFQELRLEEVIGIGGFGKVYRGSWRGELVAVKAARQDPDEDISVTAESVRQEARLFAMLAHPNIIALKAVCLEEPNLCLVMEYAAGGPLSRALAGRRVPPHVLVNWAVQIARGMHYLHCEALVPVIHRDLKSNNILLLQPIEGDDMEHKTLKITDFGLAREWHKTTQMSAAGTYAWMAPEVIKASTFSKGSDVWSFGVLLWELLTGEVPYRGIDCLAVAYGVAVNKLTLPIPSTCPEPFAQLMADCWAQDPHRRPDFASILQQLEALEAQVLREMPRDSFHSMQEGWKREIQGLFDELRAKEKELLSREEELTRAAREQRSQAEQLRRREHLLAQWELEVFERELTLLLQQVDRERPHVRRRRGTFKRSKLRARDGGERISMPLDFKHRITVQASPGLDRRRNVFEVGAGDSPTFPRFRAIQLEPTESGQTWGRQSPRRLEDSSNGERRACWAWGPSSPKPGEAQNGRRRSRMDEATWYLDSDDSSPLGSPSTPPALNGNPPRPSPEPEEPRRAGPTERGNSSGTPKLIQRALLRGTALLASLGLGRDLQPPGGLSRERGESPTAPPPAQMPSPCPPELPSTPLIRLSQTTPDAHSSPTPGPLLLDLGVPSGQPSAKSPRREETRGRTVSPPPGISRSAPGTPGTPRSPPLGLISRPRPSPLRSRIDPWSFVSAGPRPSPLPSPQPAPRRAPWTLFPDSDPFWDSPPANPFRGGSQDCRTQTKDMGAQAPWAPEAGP

In assay [1] the target is T1, GST-PKG1α LZ domain, amino acids 1-59 (WT) (UniProt Q13976).
T1 sequence: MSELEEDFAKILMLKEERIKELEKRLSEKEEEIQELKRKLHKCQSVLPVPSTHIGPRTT
In words: pull-down; GST fusion protein beads rocked overnight at 4°C with mouse LV lysate, washed 3 times in lysis buffer, Western blot for MLK3; only the target purified.

The target in assay [2] is T2, GST-PKG1α amino acids 1-236 (WT) (UniProt Q13976).
T2 sequence: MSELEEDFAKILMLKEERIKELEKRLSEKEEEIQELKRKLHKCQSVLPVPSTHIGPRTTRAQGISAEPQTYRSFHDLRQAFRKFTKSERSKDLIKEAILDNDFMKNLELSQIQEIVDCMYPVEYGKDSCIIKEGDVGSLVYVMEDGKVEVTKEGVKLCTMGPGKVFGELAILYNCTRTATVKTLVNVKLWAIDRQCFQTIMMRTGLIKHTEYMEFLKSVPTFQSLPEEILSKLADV
The assay is described as above.

In assay [3] the target is mixed lineage kinase 3 (MLK3), endogenous in mouse left ventricle lysate (mouse (endogenous in LV tissue)) (UniProt Q80XI6). The experiment in a line: co-IP; 1 mg mouse LV lysate in 1X Cell Lysis Buffer, precleared, 4 ug anti-MLK3 antibody (sc-166639) overnight at 4°C, Protein G beads, 4 washes, blot for PKG1α; LV of WT mice, and of mice after sham surgery vs 7-day transaortic constriction (TAC).

As to “mixed lineage kinase 3 (MLK3), endogenous in mouse left ventricle lysate (from UniProt Q80XI6 1-850)”, the binding entry in assay [1] and in assay [2] was “binds” each time.

B1: cGMP-dependent protein kinase 1α (PKG1α), endogenous in mouse left ventricle lysate (protein, UniProt P0C605 1-671)
chain: MSELEEDFAKILMLKEERIKELEKRLSEKEEEIQELKRKLHKCQSVLPVPSTHIGPRTTRAQGISAEPQTYRSFHDLRQAFRKFTKSERSKDLIKEAILDNDFMKNLELSQIQEIVDCMYPVEYGKDSCIIKEGDVGSLVYVMEDGKVEVTKEGVKLCTMGPGKVFGELAILYNCTRTATVKTLVNVKLWAIDRQCFQTIMMRTGLIKHTEYMEFLKSVPTFQSLPDEILSKLADVLEETHYENGEYIIRQGARGDTFFIISKGQVNVTREDSPSEDPVFLRTLGKGDWFGEKALQGEDVRTANVIAAEAVTCLVIDRDSFKHLIGGLDDVSNKAYEDAEAKAKYEAEAAFFANLKLSDFNIIDTLGVGGFGRVELVQLKSEESKTFAMKILKKRHIVDTRQQEHIRSEKQIMQGAHSDFIVRLYRTFKDSKYLYMLMEACLGGELWTILRDRGSFEDSTTRFYTACVVEAFAYLHSKGIIYRDLKPENLILDHRGYAKLVDFGFAKKIGFGKKTWTFCGTPEYVAPEIILNKGHDISADYWSLGILMYELLTGSPPFSGPDPMKTYNIILRGIDMIEFPKKIAKNAANLIKKLCRDNPSERLGNLKNGVKDIQKHKWFEGFNWEGLRKGTLTPPIIPSVASPTDTSNFDSFPEDSDEPPPDDNSGWDIDF
Regarding B1, the binding result in assay [3] is listed as “binds”.

For the origin of these results see paper PMC8492323.
